These results are taken from article PMC12785156.

These are yes or no findings as the source states them, for the method shown. In cells and extracts the contact can be indirect. A yes stands for co-enrichment or nearness to the bait. Other partners may have been found. Where a sequence is shown, tags or fusion partners need not be part of it.

The assay deals with T1, AtHPPD-GFP (Arabidopsis thaliana) (UniProt P93836).
T1 sequence: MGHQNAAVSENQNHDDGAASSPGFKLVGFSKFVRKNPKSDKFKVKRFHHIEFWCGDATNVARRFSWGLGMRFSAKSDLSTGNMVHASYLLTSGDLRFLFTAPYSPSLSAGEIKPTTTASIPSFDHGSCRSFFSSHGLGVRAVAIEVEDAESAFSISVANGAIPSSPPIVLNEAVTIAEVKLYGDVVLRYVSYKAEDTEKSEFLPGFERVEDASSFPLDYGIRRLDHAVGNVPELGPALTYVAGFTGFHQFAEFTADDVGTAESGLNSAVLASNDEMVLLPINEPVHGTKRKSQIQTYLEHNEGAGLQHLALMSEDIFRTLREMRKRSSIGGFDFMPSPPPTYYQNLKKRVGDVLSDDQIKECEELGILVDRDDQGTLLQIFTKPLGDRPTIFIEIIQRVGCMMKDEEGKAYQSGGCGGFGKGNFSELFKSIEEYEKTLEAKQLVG
Briefly: affinity purification with mass spectrometry; total proteins of seedlings overexpressing AtHPPD-GFP, IP with anti-GFP agarose, LC-MS/MS; seedlings overexpressing GFP alone as control.

B1: PUB11 (endogenous, Arabidopsis seedlings) (enzyme, UniProt Q8GUG9 1-612)
chain: MAGGIVSPASLLDLIADIVEIPLNTGMFKKDCADLTRRVCLLTHLLEEIRDSTPIDSAASSSSENDWWSDLVVGLQAAKRLLSTARFQARDSSDGAAKRISFQFQCVTWKLEKALSNLPYDLYDISDEVGEQVELARSQLRRAMQRYGSLNSNKFSSALSEPMERDGFSNVIKIKAEEKLESVSETLHFGEEEEKQSSPPLRRSSSISLAYYLSKDADTDRLDKMVNKNTDESKKSDKLTIPVDFLCPVSLELMKDPVIVATGQTYERAYIQRWIDCGNLTCPKTQQKLENFTLTPNYVLRSLISRWCAEHNIEQPAGYINGRTKNSGDMSVIRALVQRLSSRSTEDRRNAVSEIRSLSKRSTDNRILIAEAGAIPVLVNLLTSEDVATQENAITCVLNLSIYENNKELIMFAGAVTSIVQVLRAGTMEARENAAATLFSLSLADENKIIIGGSGAIPALVDLLENGTPRGKKDAATALFNLCIYHGNKGRAVRAGIVTALVKMLSDSTRHRMVDEALTILSVLANNQDAKSAIVKANTLPALIGILQTDQTRNRENAAAILLSLCKRDTEKLITIGRLGAVVPLMDLSKNGTERGKRKAISLLELLRKACQ
On to B1, for which the binding result is recorded as “binds”.
